Measurements as given in paper PMC10377513, “Goldilocks Dilemma: LPS Works Both as the Initial Target and a Barrier for the Antimicrobial Action of Cationic AMPs on E. coli” (Biomolecules, 2023).
Residues, ends and D or L forms follow the SMILES beside them.

Tested on: E. coli CCUG 70662 live cells
Experiment: Live cell NMR (1H signal attenuation on cell titration)
Assay type: binding
Details: fit parameter of Equation (6)
[1] = E. coli CCUG 70662+ (grown with 4 µg/mL colistin)
[2] = E. coli CCUG 70662- (grown without colistin)

Structure (SMILES)	γB/γF-1 ratio (line widths of bound and free AMP, from fit) [1]	γB/γF-1 ratio (line widths of bound and free AMP, from fit) [2]
CC(C)C[C@@H]1NC(=O)[C@@H](CCCNC(=N)N)NC(=O)[C@H](CCCCN)NC(=O)[C@H](CC(N)=O)NC(=O)[C@@H](Cc2c[nH]c3ccccc23)NC(=O)[C@H](Cc2c[nH]c3ccccc23)NC1=O [c(LWwNKr)] (HELM PEPTIDE1{L.W.[dW].N.K.[dR]}$PEPTIDE1,PEPTIDE1,1:R1-6:R2$$$V2.0)	4.990	5.202
NCCCC[C@@H]1NC(=O)[C@H](Cc2c[nH]c3ccccc23)NC(=O)[C@H](CCCCN)NC(=O)[C@H](Cc2c[nH]c3ccccc23)NC(=O)[C@H](CCCCN)NC(=O)[C@H](Cc2c[nH]c3ccccc23)NC1=O [c(WKWKWK)] (HELM PEPTIDE1{W.K.W.K.W.K}$PEPTIDE1,PEPTIDE1,1:R1-6:R2$$$V2.0)	0.295	0.170
N=C(N)NCCC[C@@H]1NC(=O)[C@H](Cc2c[nH]c3ccccc23)NC(=O)[C@H](CCCNC(=N)N)NC(=O)[C@H](Cc2c[nH]c3ccccc23)NC(=O)[C@H](CCCNC(=N)N)NC(=O)[C@H](Cc2c[nH]c3ccccc23)NC1=O [c(WRWRWR)] (HELM PEPTIDE1{W.R.W.R.W.R}$PEPTIDE1,PEPTIDE1,1:R1-6:R2$$$V2.0)	1.062	0.549
NCCCC[C@@H]1NC(=O)[C@H](CCCCN)NC(=O)[C@H](Cc2c[nH]c3ccccc23)NC(=O)[C@H](Cc2c[nH]c3ccccc23)NC(=O)[C@H](Cc2c[nH]c3ccccc23)NC(=O)[C@H](CCCCN)NC1=O [c(WWWKKK)] (HELM PEPTIDE1{W.W.W.K.K.K}$PEPTIDE1,PEPTIDE1,1:R1-6:R2$$$V2.0)	0.197	0.317
N=C(N)NCCC[C@@H]1NC(=O)[C@H](CCCNC(=N)N)NC(=O)[C@H](Cc2c[nH]c3ccccc23)NC(=O)[C@H](Cc2c[nH]c3ccccc23)NC(=O)[C@H](Cc2c[nH]c3ccccc23)NC(=O)[C@H](CCCNC(=N)N)NC1=O [c(WWWRRR)] (HELM PEPTIDE1{W.W.W.R.R.R}$PEPTIDE1,PEPTIDE1,1:R1-6:R2$$$V2.0)	0.238	0.473
